Laboratory results as given in PubChem BioAssay AID2718 (Broad Institute, 2010).
About 480 (0.15%) of roughly 320,000 compounds were called active. The inconclusive results got no clear call from the source; some entries with a clear call stand among them for comparison. Cut-off read from the data, not from the text of the source: active = inhibition above about 26% (passing the limit was not always enough); inconclusive = no clear call, values can overlap the other calls.

By UniProt entry, the sequences of proteins in these tests, tags left out.
UniProt O15379, whole entry, looked up: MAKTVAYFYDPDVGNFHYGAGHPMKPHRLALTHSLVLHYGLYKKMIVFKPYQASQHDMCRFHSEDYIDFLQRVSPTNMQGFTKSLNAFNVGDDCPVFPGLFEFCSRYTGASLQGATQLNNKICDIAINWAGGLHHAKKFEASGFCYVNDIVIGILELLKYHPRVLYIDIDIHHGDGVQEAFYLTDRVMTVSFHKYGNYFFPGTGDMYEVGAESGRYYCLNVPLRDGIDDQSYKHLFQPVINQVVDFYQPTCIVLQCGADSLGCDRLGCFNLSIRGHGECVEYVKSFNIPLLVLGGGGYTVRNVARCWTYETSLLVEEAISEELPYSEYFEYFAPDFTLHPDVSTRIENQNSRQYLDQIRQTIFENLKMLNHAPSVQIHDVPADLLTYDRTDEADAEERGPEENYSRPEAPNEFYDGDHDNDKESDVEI

molecular target: Histone deacetylase 3 (Homo sapiens) (UniProt O15379); assay: HDAC3 deacetylase inhibitors, primary screen, biochemical, fluorescence, cell-free homogeneous (AID 2718); conditions: recombinant HDAC3, fluorogenic peptide/trypsin coupled, at 8.3 µM, active compounds read high

Row | Structure (SMILES) | inhibition
1 | O=C(Nc1ccccc1O)c1ccc(Cl)cc1 | active: 90.7%
2 | CCOc1cccc(CN2CCN(CCCc3ccccc3)C(CCO)C2)c1O (stereo not drawn) | inconclusive: 12.8%
3 | CC(C)c1cc(C(=O)N2CCCC(CCC(=O)N3CCN(c4ccccn4)CC3)C2)no1 (stereo not drawn) | inactive: 0.681%
4 | Cn1cccc1/C=N/n1c(-c2ccc(C(C)(C)C)cc2)n[nH]c1=S | active: 28.6%
5 | CCOC(=O)CCCn1ccc2cc(S(=O)(=O)N3CCCC3)ccc21 | inconclusive: 17.6%
6 | CC[C@H](C)Cc1cn([C@@H](CCCN=C(NC(=O)OC(C)(C)C)NC(=O)OC(C)(C)C)C(=O)NCCCCCCCCCCC(=O)N2CCN(C(=O)OC(C)(C)C)CC2)nn1 | active: 28.2%
7 | Cc1ccc(-n2c(O)c(C=NCc3ccccn3)c3ccccc3c2=O)cc1C | inconclusive: 19.3%
8 | CN(C)/C=N/C(=S)Nc1cc(Cl)cc(Cl)c1 | inconclusive: 29.2%
9 | Cc1cccc(C)c1NC(=O)CSc1ccc([N+](=O)[O-])cn1 | inconclusive: 21.7%
10 | Cc1occc1-c1nnc(SCC(=O)N2CCc3ccccc32)o1 | inconclusive: 15%
11 | O=C(O)c1cccc2c1C(=O)c1ccc(-c3ccc(Cl)c(C(F)(F)F)c3)cc1S2(=O)=O | inactive: -0.00067%
12 | Cc1ccc(/C(O)=C2\C(=O)C(=O)N(c3cc(C)on3)C2c2cccc(Br)c2)cc1 (stereo not drawn) | inactive: 4.65%
13 | CCc1cc(C(=O)N/N=C/c2ccc(O)cc2O)c2ccccc2n1 | inactive: 0.419%
14 | CN(CC(=O)Nc1cccc(F)c1)C(=O)c1ccc(C2SCCS2)cc1 | active: 59.1%
15 | O=C(Nc1ncccc1O)c1cc2ccccc2o1 | inconclusive: 25.4%
16 | COc1cc(/C=N/NC(=O)c2ccc(F)cc2)ccc1OC(=O)c1ccco1 | inactive: 9.84%
17 | Cc1noc(C)c1COC(=O)C1CC(O)CN1S(=O)(=O)c1ccc(Cl)cc1 (stereo not drawn) | inactive: -0.352%
18 | Cc1cc(-n2c(C)cc(C(=O)CN3C(=O)C(=O)N(C)C3=O)c2C)no1 | inconclusive: 18.7%
19 | CCOc1ccc(CCNC(=O)CCNS(=O)(=O)c2ccc3c(c2)CCN3C(C)=O)cc1OCC | inconclusive: 16.3%
20 | Clc1ccc(C2=NNC(=NCc3ccc4c(c3)OCO4)SC2)cc1 | inactive: 11.8%
21 | CNC(=O)C1CC(=O)N(CCCc2ccccc2)C(=Nc2ccccc2)S1 (stereo not drawn) | inconclusive: 22.5%

Row | Structure (SMILES) | inhibition
22 | COc1ccc(NC(=O)C2C3C=CC4(CN(Cc5cccnc5)C(=O)C24)O3)c(OC)c1 (stereo not drawn) | inconclusive: 25.4%
23 | Cc1ccc(Cl)cc1NC(=O)C[n+]1ccc(Cc2ccc([N+](=O)[O-])cc2)cc1 | inconclusive: 18.5%
24 | CCCCCCC(=O)N(O)C1CC(=O)N(c2ccc(Cl)cc2)C1=O (stereo not drawn) | active: 62.9%
25 | COC(=O)C(Nc1ccccc1Cl)(c1cc(C)c(O)c(C)c1)C(F)(F)F (stereo not drawn) | inactive: 14.1%
26 | C/C(=N\NC(=O)C1(C)CC1(Br)Br)c1cccc(NC(=O)c2ccc(C)o2)c1 (stereo not drawn) | inactive: 0.261%
27 | O=C(CN1CCN(Cc2ccc(F)cc2)CC1)Nc1nc2ccccc2s1 | inconclusive: 10.2%
28 | CS(=O)(=O)c1ccccc1C(=O)Nc1ccc2sccc2c1 | inconclusive: 10.4%
29 | Cc1ccc(S(=O)(=O)c2nc(S(C)(=O)=O)sc2N2CCCC2)cc1 | inconclusive: 20.3%
30 | Cc1ccc(CN2CC(C(=O)N3CCN(S(=O)(=O)c4c(F)cccc4F)CC3)CC2=O)cc1 (stereo not drawn) | inactive: 2.55%
31 | CC(=O)NC(c1cccs1)c1cc(Cl)c2ccccc2c1O (stereo not drawn) | inactive: -17%
32 | COc1ccc(CC(=O)OCc2cc3ccccc3[nH]c2=O)cc1 | inactive: -3.11%
33 | Cc1ccc(-c2csc(N(CCO)CCCn3c(C(F)(F)F)nc4ccccc43)n2)cc1 | inconclusive: 25%
34 | CC(C)c1ccc(CN2C(=O)c3ccccc3S2(=O)=O)cc1 | inconclusive: 15%
35 | O=C(CNC(=O)c1ccc(Cl)cc1)OC1CCOC1=O (stereo not drawn) | inconclusive: 26.8%
36 | COc1ccccc1C1CC(c2cccs2)=Nc2ccccc2S1 (stereo not drawn) | inactive: -0.473%
37 | O=C(CCc1nnc2ccc(N3CCCC3)nn12)Nc1ccc(F)c(F)c1 | inconclusive: 15.8%
38 | CC1CCN(S(=O)(=O)c2ccc3c(c2)N(CC(=O)NCCCN2CCCCC2C)C(=O)CS3)CC1 (stereo not drawn) | inconclusive: 12.1%
39 | FC(F)(F)c1ccc(C2[C@H]3CN(Cc4cccnc4)[C@H](c4ccccc4)C34CC2(c2cccnc2)C4)cc1 (stereo partly drawn) | inconclusive: 25.8%
40 | Cc1cc(C)cc(OCc2nnc(SCC(=O)c3ccccc3)o2)c1 | inconclusive: 24.4%
41 | O=C(NC(=O)c1cc(OCC(F)(F)F)ccc1OCC(F)(F)F)Nc1ccccc1 | inconclusive: 25.7%
42 | O=C(c1ccncc1)N1CCN(C2CCCCC2)CC1 | inactive: -0.802%

Sorted by molar mass (rising): some entries from above
Row | Structure (SMILES) | inhibition
42 | O=C(c1ccncc1)N1CCN(C2CCCCC2)CC1 | inactive: -0.802%
35 | O=C(CNC(=O)c1ccc(Cl)cc1)OC1CCOC1=O (stereo not drawn) | inconclusive: 26.8%
34 | CC(C)c1ccc(CN2C(=O)c3ccccc3S2(=O)=O)cc1 | inconclusive: 15%
32 | COc1ccc(CC(=O)OCc2cc3ccccc3[nH]c2=O)cc1 | inactive: -3.11%
28 | CS(=O)(=O)c1ccccc1C(=O)Nc1ccc2sccc2c1 | inconclusive: 10.4%
18 | Cc1cc(-n2c(C)cc(C(=O)CN3C(=O)C(=O)N(C)C3=O)c2C)no1 | inconclusive: 18.7%
36 | COc1ccccc1C1CC(c2cccs2)=Nc2ccccc2S1 (stereo not drawn) | inactive: -0.473%
24 | CCCCCCC(=O)N(O)C1CC(=O)N(c2ccc(Cl)cc2)C1=O (stereo not drawn) | active: 62.9%
40 | Cc1cc(C)cc(OCc2nnc(SCC(=O)c3ccccc3)o2)c1 | inconclusive: 24.4%
20 | Clc1ccc(C2=NNC(=NCc3ccc4c(c3)OCO4)SC2)cc1 | inactive: 11.8%
37 | O=C(CCc1nnc2ccc(N3CCCC3)nn12)Nc1ccc(F)c(F)c1 | inconclusive: 15.8%
21 | CNC(=O)C1CC(=O)N(CCCc2ccccc2)C(=Nc2ccccc2)S1 (stereo not drawn) | inconclusive: 22.5%
27 | O=C(CN1CCN(Cc2ccc(F)cc2)CC1)Nc1nc2ccccc2s1 | inconclusive: 10.2%
29 | Cc1ccc(S(=O)(=O)c2nc(S(C)(=O)=O)sc2N2CCCC2)cc1 | inconclusive: 20.3%
25 | COC(=O)C(Nc1ccccc1Cl)(c1cc(C)c(O)c(C)c1)C(F)(F)F (stereo not drawn) | inactive: 14.1%
22 | COc1ccc(NC(=O)C2C3C=CC4(CN(Cc5cccnc5)C(=O)C24)O3)c(OC)c1 (stereo not drawn) | inconclusive: 25.4%
41 | O=C(NC(=O)c1cc(OCC(F)(F)F)ccc1OCC(F)(F)F)Nc1ccccc1 | inconclusive: 25.7%
33 | Cc1ccc(-c2csc(N(CCO)CCCn3c(C(F)(F)F)nc4ccccc43)n2)cc1 | inconclusive: 25%
30 | Cc1ccc(CN2CC(C(=O)N3CCN(S(=O)(=O)c4c(F)cccc4F)CC3)CC2=O)cc1 (stereo not drawn) | inactive: 2.55%
26 | C/C(=N\NC(=O)C1(C)CC1(Br)Br)c1cccc(NC(=O)c2ccc(C)o2)c1 (stereo not drawn) | inactive: 0.261%
19 | CCOc1ccc(CCNC(=O)CCNS(=O)(=O)c2ccc3c(c2)CCN3C(C)=O)cc1OCC | inconclusive: 16.3%
39 | FC(F)(F)c1ccc(C2[C@H]3CN(Cc4cccnc4)[C@H](c4ccccc4)C34CC2(c2cccnc2)C4)cc1 (stereo partly drawn) | inconclusive: 25.8%

Further compounds follow.

Row | Structure (SMILES) | inhibition
43 | O=C(CCCOc1ccc(Cl)cc1)N1CCCCC1 | inactive: -3.75%
44 | CCN(CC(=O)Nc1ccc(NC(C)=O)cc1)C(=O)c1cc(CN2C(=O)c3ccccc3C2=O)ccc1OC | inactive: 2.59%
45 | COc1ccc(NC(=O)C2CCN(S(=O)(=O)c3ccc4c(c3)CC(C)N4C(C)=O)CC2)cc1OC (stereo not drawn) | inconclusive: 18.8%
46 | CC1CCCN(C(=O)Cc2cn(Cc3cccc(Cl)c3)c3ccccc23)C1 (stereo not drawn) | inactive: 1.46%
47 | C=CCN1C(=O)C(O)(CC(=O)c2ccc(N)cc2)c2ccccc21 (stereo not drawn) | inactive: 4.78%
48 | CC1(c2cc(C(F)(F)F)n3nc(C(=O)O)cc3n2)CC1 | inactive: 1.68%
49 | CC(C)(C)c1ccc(OCCC(=O)Nc2cccc(S(=O)(=O)N3CCCC3)c2)cc1 | inconclusive: 26.3%
50 | CC1CCCN(S(=O)(=O)c2ccc(NC(=O)C3CCN(C(=O)c4ccco4)CC3)cc2)C1 (stereo not drawn) | inactive: 1.76%
51 | Cc1cccc(C)c1OCc1cc(C(=O)N2CC3C[C@@H]4CC2C[C@H](C3)C4)no1 | inactive: 3.02%
52 | COc1cccc(-n2c(=S)[nH]c3c(oc4ccccc43)c2=O)c1 | inconclusive: 18.1%
53 | COc1cc(NC(=S)Nc2ccccn2)c(OC)cc1Cl | inconclusive: 16.7%
54 | Cc1ccc(NC(=O)C2CCCN(S(=O)(=O)c3ccc4[nH]c(=O)ccc4c3)C2)nc1 (stereo not drawn) | inconclusive: 20.4%
55 | CCOc1ccc(N(Cc2ccc(C(=O)O)cc2)S(=O)(=O)c2ccc(C)cc2)cc1 | inconclusive: 36%
56 | COc1ccc(C(CC(=O)N2CCCCC2)c2c(OC)cc(OC)c3c(-c4ccccc4)cc(=O)oc23)cc1 (stereo not drawn) | inconclusive: 18.5%
57 | O=C(Nc1cccc(-n2cnnn2)c1)c1ccccc1Br | inconclusive: 44.5%
58 | COc1cccc(OCC(=O)NNC(=O)c2cccs2)c1 | inconclusive: 10.3%
59 | CCOc1ccc(C(=O)Nc2cc(-c3nc4ccccc4[nH]3)ccc2Cl)cc1[N+](=O)[O-] | inconclusive: 16.6%
60 | O=C(CNC(=O)c1ccc(N2C(=O)c3ccccc3C2=O)cc1)OCC(=O)c1ccccc1 | inconclusive: 16.1%
61 | COc1ccc(NC(=O)CN(C)C(=O)c2c(-c3c(F)cccc3Cl)noc2C)cc1 | inactive: -0.027%
62 | O=C(NCC(=O)N(c1ccccc1)C(C(=O)NC1CCCCC1)c1cccnc1)c1ccco1 (stereo not drawn) | inactive: -0.772%
63 | O=C(NC(=S)Nc1ccc(N2CCOCC2)c(Cl)c1)c1cncc(Br)c1 | inconclusive: 23.9%

Row | Structure (SMILES) | inhibition
64 | CCOc1ccc(S(=O)(=O)N2CCCCC2)cc1NC(=O)CN1C(=O)NC(C)(C2CC2)C1=O (stereo not drawn) | inactive: -1.37%
65 | CCOc1ccccc1NC(=O)c1cnc2n(c1=O)CCS2 | inconclusive: 17.1%
66 | O=C(NCc1ccc2c(c1)OCO2)c1ccc(CS(=O)Cc2cccc(Cl)c2)o1 (stereo not drawn) | inactive: 3.38%
67 | O=C1c2cccc(Sc3ccccc3)c2C(=O)c2c(Sc3ccccc3)cccc21 | inconclusive: 17.1%
68 | CC(C)c1nc(CNC(=O)CC2C(=O)NCCN2Cc2cccc(F)c2F)cs1 (stereo not drawn) | inconclusive: 10.9%
69 | CC(NC(=O)COC(=O)/C=C/c1cccc(F)c1)c1ccccc1 (stereo not drawn) | inconclusive: 16%
70 | COc1ccc(-n2c(-c3ccc(Br)cc3)c[n+]3c2CCCCC3)cc1 | inconclusive: 18.6%
71 | COc1cc(NS(=O)(=O)c2ccc(Nc3nc(-c4ccccc4)cs3)cc2)nc(OC)n1 | inconclusive: 21.3%
72 | Cc1nn(-c2ccc(N3CCCCC3)nn2)c(C)c1CCC(=O)Nc1cccc(F)c1 | inconclusive: 15.9%
73 | CSCCC(NC(=O)C1CCC(C)CC1)C(=O)N1CCN(c2ccccn2)CC1 (stereo not drawn) | inconclusive: 12.4%
74 | NC(=O)/C(=C\c1ccncc1)c1cccc2ccccc12 | inconclusive: 10%
75 | CCCN1CCN(C(=S)Nc2ccccc2C(F)(F)F)CC1 | inconclusive: 16.4%
76 | CCOc1cc(/C=N/n2cnnc2)cc(Br)c1O | inconclusive: 21.9%
77 | CC1(C)CC(=O)C2=C(C1)N(C1CCCCC1)C(=O)C2(O)C(F)(F)F (stereo not drawn) | inconclusive: 14.6%
78 | Cc1[nH]n(-c2ccccc2)c(=O)c1/C=N/N1C(=O)c2cccc3cccc(c23)C1=O | inconclusive: 23.4%
79 | Cc1sc2nc(CN3CCCCC3)nc(N3CCN(C(=O)c4ccco4)CC3)c2c1C | inconclusive: 25.9%
80 | CC(C)(C)OC(=O)[C@H](Cc1ccccc1)NC(=O)c1nc[nH]c1C(=O)N[C@@H](Cc1ccccc1)C(=O)OC(C)(C)C | inconclusive: 26.7%
81 | NC(=O)c1ccc(NC(=O)COC(=O)C2(c3cccc(F)c3)CCCC2)cc1 | inconclusive: 13.6%
82 | COC(=O)Cc1ccc(NC(=S)N2CCN(CCO)CC2)cc1 | inconclusive: 16.2%
83 | COc1cc2cnc(-c3ccccc3)c(-c3cccc(C(F)(F)F)c3)c2cc1OC | inconclusive: 26.9%
